## Assay results

Source: PubChem BioAssay AID1159506 (NCATS, 2015).

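Genome-wide siRNA knockdown in TC32 Ewing sarcoma cells, comparing luciferase light from an NR0B1-promoter reporter with a CMV-promoter reporter 48 hours after transfection.
Each siRNA was applied at 20 nM.
A z-score of the log NR0B1-over-CMV signal, less the median of siRNAs with the same seed; more negative means a stronger specific loss of the NR0B1 reporter.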

The strongest results of the screen are mostly left out here.
Sequences are the guide (antisense) strand, without overhang.

| siRNA | gene | seed-corrected z-score |
|---|---|---|
| `UGUAACACCAUAGCUCUCC` | KLHL23 | -0.3342 |
| `UGAAACUCAAGAUGCGUGC` | CSRNP1 | 0.3515 |
| `AAAGGUAACAGGAAAGUUC` | CD81 | -0.5155 |
| `UGCACUAGUAGAUUCGUUC` | TMEM117 | 0.6479 |
| `UUUGUAAUCCACCUUGCCG` | MYH9 | -0.1983 |
| `UACUUAAGCUCAUCGGUUG` | BEND4 | -1.064 |
| `UAGAAUGAAAUUUCACCGG` | TRIM58 | -0.3341 |
| `UCGUUAUUAACACCAACAG` | NCAPG | -0.6111 |
| `UUGAAGUUAAUCUCUGUGG` | CRABP2 | -0.8631 |
| `UCUCUGAUAAGCUCGAGGG` | C14orf37 | -0.03009 |
| `UUAAUCAGGAGGGCGGUUC` | WNT3A | 0.47 |
| `UCUGUGCAAAGAGUAAUGU` | C15orf54 | 0.2644 |
| `UAAGGAAUCAUAAGUGGUU` | TMEM132C | 0.01913 |
| `UUGGCAUUGAACUUGAUGA` | RPL10P8 | 0.2255 |
| `UUCAUUGUUAAAACUAUCU` | OR4L1 | 0.6515 |
| `UAUCUCACACUGUAAAUCC` | ZNF573 | -1.568 |
| `AAUAAUAUAGGCUUUCCUC` | TPTE2 | 0.07242 |
| `AGACAUAUUAUUCUCAGGC` | EXO1 | -0.8344 |
| `UCCAAAAGCAGAAUUCUGG` | ISCA1P1 | 0.7156 |
| `UUGUAGGAAAGAGGCUUGG` | GPR52 | -1.765 |
| `AUAGGCAACACCAAGCUUC` | ADAM20 | 0.000209 |
| `UUUGCUAAGUGUCCAGUCC` | LOC646030 | 0.1618 |
| `UUCAUCUGGACAAUAUUGC` | PSMB2 | 0.6636 |
| `AAAUCGCUGAUUAUAAUGC` | POP1 | 0.3886 |
| `UCUGUUAAAUAGUCCAACC` | GCOM1 | 0.9103 |
| `AAAGAGACUCUUGGUGUCA` | RPS4XP16 | 0.7573 |
| `AGUCGAACUGCUCUGGUUG` | ATAD3A | 0.1205 |
| `UCUCGAUCAACUAUGGAUG` | DSG1 | -0.8491 |
| `UUUCUGAUCUCAGUUGAGC` | AGBL1-AS1 | 0.1699 |
| `UAACGGAUUACAUGUGGAG` | TAAR2 | -0.9662 |
| `UCAGGUCUAAGAUCACCUC` | QSOX2 | 0.07351 |
| `UGAGAAGUCACGGAAGAAG` | COL18A1 | 0.9833 |
| `UCCCUGUAGAGUCUGGUGG` | FLJ46284 | -0.0000649 |
| `ACUGUUCAUAGUACGAUGC` | CPB2 | -0.7985 |
| `UUCCGAAUUCUGUCUGUCU` | FAM221B | 0.2091 |
| `UAAGUCUUUAUUGUGGAGG` | PDE7B | 0.3075 |
| `UGUGGUAGAACCAUCUUUC` | ACAA1 | -0.6816 |
| `UACUGACAAAUGACCAAGC` | CDC20B | -0.3578 |
| `AAUGCUUUUACGGAAUUCC` | HOXC13 | -1.471 |
| `UUCCCAUAAAAUGUGAGUC` | SPON1 | -1.011 |
| `AACAAUAUUAUAUGAGAUC` | KRTAP4-5 | 0.2903 |
| `UUGCGCACCAGGUUCUUGC` | LRRC4B | -0.3092 |
| `UAGCUAAACAGGUGAACUU` | EML2 | 0.06637 |
| `UCCUUAUAAGGAGAAAUGG` | MRPS18B | -0.05129 |
| `UUCAGUACUAGACUCACUC` | KBTBD7 | 0.02491 |
| `UGUAAUACUCGCCCAGUUC` | SUPT5H | -0.7274 |

For reference, 2 entries once more:

siRNA,gene,seed-corrected z-score
UAGCUAAACAGGUGAACUU,EML2,0.06637
UCUGUGCAAAGAGUAAUGU,C15orf54,0.2644